The other results are listed elsewhere or left out.

Chains of the proteins cited; added tags and fusions are not shown.
UniProt Q0JBA9, entry or part of it: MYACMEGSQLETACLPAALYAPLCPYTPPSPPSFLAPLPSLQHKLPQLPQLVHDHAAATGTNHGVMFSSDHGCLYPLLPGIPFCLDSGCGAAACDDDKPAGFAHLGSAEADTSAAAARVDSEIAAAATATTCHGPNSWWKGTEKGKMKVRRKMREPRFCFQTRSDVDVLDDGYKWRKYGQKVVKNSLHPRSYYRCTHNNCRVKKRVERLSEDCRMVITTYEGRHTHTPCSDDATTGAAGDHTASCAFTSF

The assay concerns the target OsWRKY34 (Oryza sativa, UniProt Q0JBA9 1-250). As to the kind of experiment: protein-binding microarray (RPBM); PBS, 2% BSA, 51.3 ng/ul salmon testes DNA, 50 uM zinc acetate, 200 nM TF, 25 C, 1 h; high values mean tight binding. Conditions: protein: recombinant; tags: N-terminal polyhistidine and DsRed monomer fusion (pET32a); label: CyDye5-dUTP incorporated in the synthesized complementary strand; 3' TTTTT single-stranded linker to array surface; dsDNA, one strand shown. Summed up:
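For the binding signal, per-feature fluorescence intensity was read in arbitrary units on an Axon 4000B scanner. Before scanning, a 2% BSA-blocked custom Agilent array made double-stranded with Cy5-dUTP was washed after 1 h at 25 °C with 200 nM protein and 50 µM zinc acetate. The proteins were Ni–NTA-purified transcription factors with N-terminal polyhistidine and DsRed fusions, expressed in E. coli BL21-CodonPlus.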
Regarding “TCGATTTTTAAGCACCACCTCACCTCATTACCCGCGCTTTCGGAGTCACCTAGTGCAG”, the binding signal was 10400 fluorescence intensity (a.u.).

Take “ATACCAGGATCTTTTCTCCTGTCGTTACATTTTGCTTAATCGGAGTCACCTAGTGCAG”: the binding signal was 8680 fluorescence intensity (a.u.). With “TCGATTCATCCGATCCGACTCCGACCTAACCAATCCAATGCGGAGTCACCTAGTGCAG”, the binding signal was 8520 fluorescence intensity (a.u.). As to “TAGGTAGGGTGGTGGCGGGCGGGCTCCCGCAGCCAGTGGCCGGAGTCACCTAGTGCAG”, the binding signal was 11100 fluorescence intensity (a.u.).

For “TCCGCTATACAAAAATTCTTGCGCTTCGCCACGTCAGCATCGGAGTCACCTAGTGCAG”, the binding signal is 8310 fluorescence intensity (a.u.).

For “ACCTGTTCGATGTGCTTGACCGTTTCAACGCCTAGGCCCACGGAGTCACCTAGTGCAG”, the binding signal is 8240 fluorescence intensity (a.u.). With “AGGAAGGGAGGGTAATATACCATTAAACTTCGTTTTTATTCGGAGTCACCTAGTGCAG”, the binding signal is 8220 fluorescence intensity (a.u.). As to “CCCCTGTCCTGAGCTATTATTCGCAACCATTGACTAATTTCGGAGTCACCTAGTGCAG”, the binding signal was 9590 fluorescence intensity (a.u.).

As to “ACATTTACTATTTGTCTTATTTAAATTTTTTTATGATTAACGGAGTCACCTAGTGCAG”, the binding signal is 8760 fluorescence intensity (a.u.).

Consider “GCCTCCGCCGCCGCCGCCGCCGCCGCGTCGTCTCCGACCGCGGAGTCACCTAGTGCAG”, for which the binding signal was 9710 fluorescence intensity (a.u.). As for “CTGCTGCATCTTGTTGGGAACTTTTCCTCTCCTCTCCTCTCGGAGTCACCTAGTGCAG”, the binding signal is 8940 fluorescence intensity (a.u.). In the case of “GATTTGCTTCTTCTTGGTCTATAAAATGCTCGCATTGTCTCGGAGTCACCTAGTGCAG”, the binding signal is 8800 fluorescence intensity (a.u.). Turning to “ATTGTCTTTCCTGTACAACATGTCACCAGCATAAATGGTCCGGAGTCACCTAGTGCAG”, the binding signal was 9020 fluorescence intensity (a.u.). For the sequence “GCTCTACTAGTACTACTATTGATCGAGTCAATGTAACGATCGGAGTCACCTAGTGCAG”, the binding signal is 8390 fluorescence intensity (a.u.). For “CACATATTAATGGTTTTCTTGTTTTGCATGTCCACTTTTACGGAGTCACCTAGTGCAG” the value was 11100 fluorescence intensity (a.u.).

Turning to “CAACTTTGGCTTCACTATCAGCTGCACGCTCCCGCCCTTCCGGAGTCACCTAGTGCAG”, the binding signal was 9220 fluorescence intensity (a.u.). For “TATATATCAAATCCTGACCATGTGCGTATGTTACCCTCAACGGAGTCACCTAGTGCAG” the value was 8140 fluorescence intensity (a.u.); for “AAAGAGATTTATTATACGTCTGCTCCTGTATTTCCAAAAGCGGAGTCACCTAGTGCAG”, 8100 fluorescence intensity (a.u.). Take “AACATTGATGAGAATTGAAATCATTTCGTTGCTCTAATCTCGGAGTCACCTAGTGCAG”: the binding signal is 8340 fluorescence intensity (a.u.). For “CATGCGTACTCATCTTCATCACTACCGCTTGAGCTCAAGTCGGAGTCACCTAGTGCAG”, the binding signal is 8690 fluorescence intensity (a.u.). As for “TTGATGTTTCTTTTCCTGGCGTTATCGATGTAAACATGGCCGGAGTCACCTAGTGCAG”, the binding signal is 9190 fluorescence intensity (a.u.). Consider “CTGGGTCATATGTATCATCTGTGTTTGTTTCCATATGAATCGGAGTCACCTAGTGCAG”, for which the binding signal was 8950 fluorescence intensity (a.u.). As for “GTCGAGCTTGTCGCCTCGCCACGGTCTGCTCCCGGGCTCGCGGAGTCACCTAGTGCAG”, the binding signal is 8460 fluorescence intensity (a.u.). For the sequence “CCTGTTTTCTTCACACGTTATTTTGTGTTATTCCCTGTTTCGGAGTCACCTAGTGCAG”, the binding signal is 13200 fluorescence intensity (a.u.). For “CGCGCCATTGCCATCGTTTCACCCTACATATAAACCGCATCGGAGTCACCTAGTGCAG” the value was 9050 fluorescence intensity (a.u.); for “TTTGTGGGTGTTTGGTGTGCAGGTGTACATGATTGTTTGCCGGAGTCACCTAGTGCAG”, 8910 fluorescence intensity (a.u.); for “GCGCTCTTTTGGGCCAGAGGCCTATTCCCACTTGACTTCCCGGAGTCACCTAGTGCAG”, 8430 fluorescence intensity (a.u.). On to “GACCACCTCGGCCACCACTCTGCCCGCGGCCCTCACCCAGCGGAGTCACCTAGTGCAG”, for which the binding signal was 8410 fluorescence intensity (a.u.). For “CCATTCACCTCTCCGCACGCACCCACCCACCCACCAACCGCGGAGTCACCTAGTGCAG”, the binding signal was 10300 fluorescence intensity (a.u.).

As for “CCGTCCGATTTTTCTGCACGCGATCCTGACCGTGTCCAGACGGAGTCACCTAGTGCAG”, the binding signal was 8190 fluorescence intensity (a.u.). For the sequence “GGTCCAGTTGCACCTCTTCGCATTCAGCTTCCTCTACAGCCGGAGTCACCTAGTGCAG”, the binding signal is 8180 fluorescence intensity (a.u.). Turning to “GGTCTCCACCTCCTCCGCCTTCACCACCCCGTCGTCGTCACGGAGTCACCTAGTGCAG”, the binding signal is 8260 fluorescence intensity (a.u.). “TTAAATCCACCATTAAATATTTTTATATTATATCTTTTGTCGGAGTCACCTAGTGCAG”: the binding signal was 8140 fluorescence intensity (a.u.). Turning to “GTATTTTAGAATGTTGCACGTGGTGTGTTTTTTGGGATGTCGGAGTCACCTAGTGCAG”, the binding signal is 9640 fluorescence intensity (a.u.). Take “CTGGTCCCATGGATTGCCTATAGCTGATTAATTGATTATACGGAGTCACCTAGTGCAG”: the binding signal was 9560 fluorescence intensity (a.u.). As for “AGAGAGACGCAATTGACAGCATTTTGTAAGCATTTGAAGCCGGAGTCACCTAGTGCAG”, the binding signal was 8290 fluorescence intensity (a.u.). Regarding “TTTTTCAACCTCCGTTTATATACAACGCACGATCACATATCGGAGTCACCTAGTGCAG”, the binding signal is 8560 fluorescence intensity (a.u.).

Regarding “TATTTTTAATTCCGAATTTCAGTTATTTCCTAATTGTATTCGGAGTCACCTAGTGCAG”, the binding signal was 9240 fluorescence intensity (a.u.). On to “TGGCTTCCTGCTGACATAACCCAAAGCTTTCACTGTCCTTCGGAGTCACCTAGTGCAG”, for which the binding signal was 8250 fluorescence intensity (a.u.). As for “CCCTGGCGCGCCCAATCCCACACTCATATATACACACTTCCGGAGTCACCTAGTGCAG”, the binding signal was 10100 fluorescence intensity (a.u.). Take “CCCAGGTGTGCGCGGCTCTCTTCTCCTCCATCGGCGACGACGGAGTCACCTAGTGCAG”: the binding signal was 8720 fluorescence intensity (a.u.). For “CCATTTCTTTTTATGTTTTCTGAATAATTTTTCTTCTTCTCGGAGTCACCTAGTGCAG” the value was 9030 fluorescence intensity (a.u.); for “CGGTTCGGTTCTTCGGTTCGGTCTTATTTTGCCCACCCCTCGGAGTCACCTAGTGCAG”, 9320 fluorescence intensity (a.u.). For “GTGGGGAAAGATAAGTGTGTGTGGGTGTGGCAATAAAGGTCGGAGTCACCTAGTGCAG” the value was 8920 fluorescence intensity (a.u.). In the case of “TTCCGCCTTCTGGCGAGGTTGTGCGGTGGGGATGGGCCGGCGGAGTCACCTAGTGCAG”, the binding signal is 10500 fluorescence intensity (a.u.).

For “GCCCCTGTTGACTGTTGTTCACATCTCTTTCAGATATTTTCGGAGTCACCTAGTGCAG”, the binding signal was 11700 fluorescence intensity (a.u.).

For “TGAATTTAAGGAGGTTACCACGGTATTTACGTTACCGTTCCGGAGTCACCTAGTGCAG”, the binding signal was 8540 fluorescence intensity (a.u.). With “GAAATGAGGGGTGGGATTGGGATTGGGATTGGAAAATGAACGGAGTCACCTAGTGCAG”, the binding signal was 11800 fluorescence intensity (a.u.). For the sequence “CTATTGTTTGCAAGAATTTTGAGTTTTTTTTCCTGATTTCCGGAGTCACCTAGTGCAG”, the binding signal is 10500 fluorescence intensity (a.u.).

As to “GCCCGCATTTTGCCATTCATCCTCCACCTCTCGCCGCCAACGGAGTCACCTAGTGCAG”, the binding signal was 8460 fluorescence intensity (a.u.). For “GGTCTTCCTACTTCTTACCTGCGTCTTGCTGCACATCGTCCGGAGTCACCTAGTGCAG” the value was 9580 fluorescence intensity (a.u.). For the sequence “CTGCGTTTGTGCGGGTGCGGGTGCGGGTGCTAGACTGCTACGGAGTCACCTAGTGCAG”, the binding signal was 8770 fluorescence intensity (a.u.). Consider “AAAAAGACAAACCCTGGTTTCCGTGCGCAATGTTTGACCGCGGAGTCACCTAGTGCAG”, for which the binding signal is 8640 fluorescence intensity (a.u.). For “AGCACTTATTTAGTTCAGGCAATACTATAATTTTCTTTATCGGAGTCACCTAGTGCAG” the value was 8630 fluorescence intensity (a.u.).

The values above are taken from publication PMC7819943, “Rice protein-binding microarrays: a tool to detect cis-acting elements near promoter regions in rice”.
